Paper PMC11643641
Results are given in words; binding and its absence hold for the method and conditions named. In cells and extracts the contact can be indirect. A yes stands for co-enrichment or nearness to the bait. Other partners may have been found.

Target: Caspar (Casp), Drosophila orthologue of human Fas-associated factor-1 (FAF1) (D. melanogaster (endogenous in 0-3 hr embryos))
Assay: affinity purification with mass spectrometry; immunoprecipitation with rabbit anti-Casp antibody (cross-linked to Protein A SureBeads with DMP) from 0-3 hr embryonic lysates in Co-IP Lysis Buffer (20 mM Tris pH 8.0, 137 mM NaCl, 1% IGEPAL, 2 mM EDTA), 4 °C; normal rabbit IgG IP as control; in-gel trypsin digestion, LC-MS/MS

B1: vesicle-associated membrane protein-associated protein B (VAPB/VAP33A) (protein, UniProt Q9W4N8 1-269)
chain: MSKSLFDLPLTIEPEHELRFVGPFTRPVVTIMTLRNNSALPLVFKIKTTAPKRYCVRPNIGKIIPFRSTQVEICLQPFVYDQQEKNKHKFMVQSVLAPMDADLSDLNKLWKDLEPEQLMDAKLKCVFEMPTAEANAENTSGGGAVGGGTGAAGGGSAGANTSSASAEALESKPKLSSEDKFKPSNLLETSESLDLLSGEIKALRECNIELRRENLHLKDQITRFRSSPAVKQVNEPYAPVLAEKQIPVFYIAVAIAAAIVSLLLGKFFL
  binding: binds

B2: Maternal expression at 31B (Me31B) (protein, UniProt P23128 1-459)
chain: MMTEKLNSGHTNLTSKGIINDLQIAGNTSDDMGWKSKLKLPPKDNRFKTTDVTDTRGNEFEEFCLKRELLMGIFEKGWERPSPIQEAAIPIALSGKDVLARAKNGTGKTGAYCIPVLEQIDPTKDYIQALVMVPTRELALQTSQICIELAKHLDIRVMVTTGGTILKDDILRIYQKVQLIIATPGRILDLMDKKVADMSHCRILVLDEADKLLSLDFQGMLDHVILKLPKDPQILLFSATFPLTVKNFMEKHLREPYEINLMEELTLKGVTQYYAFVQERQKVHCLNTLFSKLQINQSIIFCNSTQRVELLAKKITELGYCCYYIHAKMAQAHRNRVFHDFRQGLCRNLVCSDLFTRGIDVQAVNVVINFDFPRMAETYLHRIGRSGRFGHLGIAINLITYEDRFDLHRIEKELGTEIKPIPKVIDPALYVANVGASVGDTCNNSDLNNSANEEGNVSK
  binding: binds
